This passage reports binding results from paper PMC10238178.

Experiment [1] has as its target T1, OTUD6B (endogenous, ESCC cells) (human (endogenous in KYSE30 and KYSE450)) (UniProt Q8N6M0).
T1 sequence: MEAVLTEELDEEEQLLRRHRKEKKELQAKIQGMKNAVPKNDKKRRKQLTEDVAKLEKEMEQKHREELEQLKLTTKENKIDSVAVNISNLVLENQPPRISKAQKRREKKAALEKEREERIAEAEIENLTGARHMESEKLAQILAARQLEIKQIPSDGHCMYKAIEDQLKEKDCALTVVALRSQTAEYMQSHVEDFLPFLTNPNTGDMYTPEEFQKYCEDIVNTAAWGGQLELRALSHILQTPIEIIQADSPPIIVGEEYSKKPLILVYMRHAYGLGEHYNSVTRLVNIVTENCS
Put plainly: co-IP; endogenous proteins in KYSE30 and KYSE450 cells; precipitated with anti-OTUD6B antibody or anti-β-TrCP antibody.

Another experiment deals with Flag-β-TrCP. Put plainly: co-IP; panel of DUBs (pcDNA3) each co-transfected with β-TrCP into HEK293T; which partner was precipitated is not stated.

Results are given in words; binding and its absence hold for the method and conditions named. Binding seen in cells or lysates may run through a third protein. Binding calls can cover weak binding; strength is not graded here.

For the molecule “β-TrCP (endogenous, ESCC cells) (human (endogenous in KYSE30 and KYSE450))”, the binding result in experiment [1] was “binds”.

B1: VCPIP1 (transfected) (enzyme, UniProt Q96JH7 1-1222)
chain: MSQPPPPPPPLPPPPPPPEAPQTPSSLASAAASGGLLKRRDRRILSGSCPDPKCQARLFFPASGSVSIECTECGQRHEQQQLLGVEEVTDPDVVLHNLLRNALLGVTGAPKKNTELVKVMGLSNYHCKLLSPILARYGMDKQTGRAKLLRDMNQGELFDCALLGDRAFLIEPEHVNTVGYGKDRSGSLLYLHDTLEDIKRANKSQECLIPVHVDGDGHCLVHAVSRALVGRELFWHALRENLKQHFQQHLARYQALFHDFIDAAEWEDIINECDPLFVPPEGVPLGLRNIHIFGLANVLHRPIILLDSLSGMRSSGDYSATFLPGLIPAEKCTGKDGHLNKPICIAWSSSGRNHYIPLVGIKGAALPKLPMNLLPKAWGVPQDLIKKYIKLEEDGGCVIGGDRSLQDKYLLRLVAAMEEVFMDKHGIHPSLVADVHQYFYRRTGVIGVQPEEVTAAAKKAVMDNRLHKCLLCGALSELHVPPEWLAPGGKLYNLAKSTHGQLRTDKNYSFPLNNLVCSYDSVKDVLVPDYGMSNLTACNWCHGTSVRKVRGDGSIVYLDGDRTNSRSTGGKCGCGFKHFWDGKEYDNLPEAFPITLEWGGRVVRETVYWFQYESDSSLNSNVYDVAMKLVTKHFPGEFGSEILVQKVVHTILHQTAKKNPDDYTPVNIDGAHAQRVGDVQGQESESQLPTKIILTGQKTKTLHKEELNMSKTERTIQQNITEQASVMQKRKTEKLKQEQKGQPRTVSPSTIRDGPSSAPATPTKAPYSPTTSKEKKIRITTNDGRQSMVTLKSSTTFFELQESIAREFNIPPYLQCIRYGFPPKELMPPQAGMEKEPVPLQHGDRITIEILKSKAEGGQSAAAHSAHTVKQEDIAVTGKLSSKELQEQAEKEMYSLCLLATLMGEDVWSYAKGLPHMFQQGGVFYSIMKKTMGMADGKHCTFPHLPGKTFVYNASEDRLELCVDAAGHFPIGPDVEDLVKEAVSQVRAEATTRSRESSPSHGLLKLGSGGVVKKKSEQLHNVTAFQGKGHSLGTASGNPHLDPRARETSVVRKHNTGTDFSNSSTKTEPSVFTASSSNSELIRIAPGVVTMRDGRQLDPDLVEAQRKKLQEMVSSIQASMDRHLRDQSTEQSPSDLPQRKTEVVSSSAKSGSLQTGLPESFPLTGGTENLNTETTDGCVADALGAAFATRSKAQRGNSVEELEEMDSQDAEMTNTTEPMDHS
Take B1: the binding result in the experiment with Flag-β-TrCP is on record as “binds”.

B2: USP47 (transfected) (enzyme, UniProt Q96K76 1-1375)
chain: MVPGEENQLVPKEDVFWRCRQNIFDEMKKKFLQIENAAEEPRVLCIIQDTTNSKTVNERITLNLPASTPVRKLFEDVANKVGYINGTFDLVWGNGINTADMAPLDHTSDKSLLDANFEPGKKNFLHLTDKDGEQPQILLEDSSAGEDSVHDRFIGPLPREGSGGSTSDYVSQSYSYSSILNKSETGYVGLVNQAMTCYLNSLLQTLFMTPEFRNALYKWEFEESEEDPVTSIPYQLQRLFVLLQTSKKRAIETTDVTRSFGWDSSEAWQQHDVQELCRVMFDALEQKWKQTEQADLINELYQGKLKDYVRCLECGYEGWRIDTYLDIPLVIRPYGSSQAFASVEEALHAFIQPEILDGPNQYFCERCKKKCDARKGLRFLHFPYLLTLQLKRFDFDYTTMHRIKLNDRMTFPEELDMSTFIDVEDEKSPQTESCTDSGAENEGSCHSDQMSNDFSNDDGVDEGICLETNSGTEKISKSGLEKNSLIYELFSVMVHSGSAAGGHYYACIKSFSDEQWYSFNDQHVSRITQEDIKKTHGGSSGSRGYYSSAFASSTNAYMLIYRLKDPARNAKFLEVDEYPEHIKNLVQKERELEEQEKRQREIERNTCKIKLFCLHPTKQVMMENKLEVHKDKTLKEAVEMAYKMMDLEEVIPLDCCRLVKYDEFHDYLERSYEGEEDTPMGLLLGGVKSTYMFDLLLETRKPDQVFQSYKPGEVMVKVHVVDLKAESVAAPITVRAYLNQTVTEFKQLISKAIHLPAETMRIVLERCYNDLRLLSVSSKTLKAEGFFRSNKVFVESSETLDYQMAFADSHLWKLLDRHANTIRLFVLLPEQSPVSYSKRTAYQKAGGDSGNVDDDCERVKGPVGSLKSVEAILEESTEKLKSLSLQQQQDGDNGDSSKSTETSDFENIESPLNERDSSASVDNRELEQHIQTSDPENFQSEERSDSDVNNDRSTSSVDSDILSSSHSSDTLCNADNAQIPLANGLDSHSITSSRRTKANEGKKETWDTAEEDSGTDSEYDESGKSRGEMQYMYFKAEPYAADEGSGEGHKWLMVHVDKRITLAAFKQHLEPFVGVLSSHFKVFRVYASNQEFESVRLNETLSSFSDDNKITIRLGRALKKGEYRVKVYQLLVNEQEPCKFLLDAVFAKGMTVRQSKEELIPQLREQCGLELSIDRFRLRKKTWKNPGTVFLDYHIYEEDINISSNWEVFLEVLDGVEKMKSMSQLAVLSRRWKPSEMKLDPFQEVVLESSSVDELREKLSEISGIPLDDIEFAKGRGTFPCDISVLDIHQDLDWNPKVSTLNVWPLYICDDGAVIFYRDKTEELMELTDEQRNELMKKESSRLQKTGHRVTYSPRKEKALKIYLDGAPNKDLTQD
In the case of B2, the binding entry with Flag-β-TrCP was “binds”.
